{"source": "patent US7498321B2", "about": "“17β-carbothioate 17α-arylcarbonyloxyloxy androstane derivative as anti-inflammatory agents” (Glaxo Group Limited, priority 2000, dated 2009)", "assay": "Pharmacokinetics after intra-tracheal dry powder dosing in the pig", "assay_type": "in vivo", "details": "anaesthetised pigs, intra-tracheal 1 mg", "procedure": "Serial blood samples were taken for up to 8 h following dosing.", "note": "Some entries share one result that the patent states for a list of compounds. For at least one compound, name, drawing or mass did not settle the structure."}
{"molecule": "C[C@@H]1CC2C3C[C@H](F)C4=CC(=O)C=C[C@]4(C)[C@@]3(F)[C@@H](O)C[C@]2(C)[C@@]1(OC(=O)c1ccco1)C(=O)SCF", "note": "(stereo partly drawn) [Example 1, 6α, 9α-Difluoro-17α-[(2-furanylcarbonyl)oxy]-11β-hydroxy-16α-methyl-3-oxo-androsta-1,4-diene-17β-carbothioic acid S-fluoromethyl ester]", "values": [{"measurement": "time of maximum plasma concentration after dosing", "result": "≤ 15", "unit": "min"}]}
